# The other results are listed elsewhere or left out.
# Experiments:
# Experiment in all cases: glycan array binding signal (z-score within array); higher = stronger binding
# Settings in all cases: glycan notation: IUPAC condensed, linker removed
# [1] = target: Gal(b1-3)GlcNAc(b1-6)GalNAc
# Procedure, shortened: (§1)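 Glycan array data were curated from 3228 arrays in the Consortium for Functional Glycomics database and kept only where the protein sequence was available. Glycan names were converted to IUPAC-condensed notation, and columns mapping to the same glycan were averaged. The binding signal is a within-array Z-score, averaged across arrays of the same protein sequence at different concentrations or buffers and across linkers. Negative Z-scores can be read as non-binding.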
# [2] = target: Gal(b1-3)GlcNAc(b1-6)[Gal(b1-3)]GalNAc
# Procedure, shortened: as §1
# Gal(b1-3)GlcNAc6S = target: Gal(b1-3)GlcNAc6S
# Procedure, shortened: as §1
# [3] = target: Gal(b1-3)[Fuc(a1-4)]GlcNAc
# Procedure, shortened: as §1
# [4] = target: Gal(b1-3)[Fuc(a1-4)]GlcNAc(b1-2)Man
# Procedure, shortened: as §1
# [5] = target: Gal(b1-3)[Fuc(a1-4)]GlcNAc(b1-2)Man(a1-3)[Gal(b1-3)[Fuc(a1-4)]GlcNAc(b1-2)Man(a1-6)]Man(b1-4)GlcNAc(b1-4)[Fuc(a1-6)]GlcNAc
# Procedure, shortened: as §1
# [6] = target: Gal(b1-3)[Fuc(a1-4)]GlcNAc(b1-3)Gal(b1-3)[Fuc(a1-4)]GlcNAc
# Procedure, shortened: as §1
# [7] = target: Gal(b1-3)[Fuc(a1-4)]GlcNAc(b1-3)Gal(b1-4)[Fuc(a1-3)]GlcNAc
# Procedure, shortened: as §1
# [8] = target: Gal(b1-3)[Fuc(a1-4)]GlcNAc(b1-6)GalNAc
# Procedure, shortened: as §1
# [9] = target: Gal(b1-3)[GlcNAc(b1-6)]GalNAc
# Procedure, shortened: as §1
# [10] = target: Gal(b1-3)[Neu5Ac(a2-6)]GalNAc
# Procedure, shortened: as §1
# [11] = target: Gal(b1-3)[Neu5Ac(a2-6)]GlcNAc(b1-4)Gal(b1-4)Glc
# Procedure, shortened: as §1
# [12] = target: Gal(b1-3)[Neu5Ac(b2-6)]GalNAc
# Procedure, shortened: as §1
# Gal(b1-4)Gal = target: Gal(b1-4)Gal
# Procedure, shortened: as §1
# [13] = target: Gal(b1-4)GalNAc(a1-3)[Fuc(a1-2)]Gal(b1-4)GlcNAc
# Procedure, shortened: as §1
# [14] = target: Gal(b1-4)GalNAc(b1-3)[Fuc(a1-2)]Gal(b1-4)GlcNAc
# Procedure, shortened: as §1
# Gal(b1-4)Glc = target: Gal(b1-4)Glc
# Procedure, shortened: as §1
# Gal(b1-4)Glc6S = target: Gal(b1-4)Glc6S
# Procedure, shortened: as §1
# Gal(b1-4)GlcNAc = target: Gal(b1-4)GlcNAc
# Procedure, shortened: as §1
# [15] = target: Gal(b1-4)GlcNAc(a1-6)Gal(b1-4)GlcNAc
# Procedure, shortened: as §1
# Gal(b1-4)GlcNAc(b1-2)Man = target: Gal(b1-4)GlcNAc(b1-2)Man
# Procedure, shortened: as §1
# [16] = target: Gal(b1-4)GlcNAc(b1-2)Man(a1-3)Man(b1-4)GlcNAc(b1-4)GlcNAc
# Procedure, shortened: as §1
# [17] = target: Gal(b1-4)GlcNAc(b1-2)Man(a1-3)[Gal(b1-4)GlcNAc(b1-2)Man(a1-6)]Man(b1-4)GlcNAc(b1-4)GlcNAc
# Procedure, shortened: as §1
# [18] = target: Gal(b1-4)GlcNAc(b1-2)Man(a1-3)[Gal(b1-4)GlcNAc(b1-2)Man(a1-6)]Man(b1-4)GlcNAc(b1-4)[Fuc(a1-6)]GlcNAc
# Procedure, shortened: as §1
# [19] = target: Gal(b1-4)GlcNAc(b1-2)Man(a1-3)[Gal(b1-4)GlcNAc(b1-2)Man(a1-6)][Gal(b1-4)GlcNAc(b1-4)]Man(b1-4)GlcNAc(b1-4)[Fuc(a1-6)]GlcNAc
# Procedure, shortened: as §1
# [20] = target: Gal(b1-4)GlcNAc(b1-2)Man(a1-3)[Gal(b1-4)GlcNAc(b1-2)Man(a1-6)][GlcNAc(b1-4)]Man(b1-4)GlcNAc(b1-4)[Fuc(a1-6)]GlcNAc
# Procedure, shortened: as §1
# [21] = target: Gal(b1-4)GlcNAc(b1-2)Man(a1-3)[GlcNAc(b1-2)Man(a1-6)]Man(b1-4)GlcNAc(b1-4)GlcNAc
# Procedure, shortened: as §1
# [22] = target: Gal(b1-4)GlcNAc(b1-2)Man(a1-3)[GlcNAc(b1-4)][Gal(b1-4)GlcNAc(b1-2)Man(a1-6)]Man(b1-4)GlcNAc(b1-4)GlcNAc
# Procedure, shortened: as §1
# [23] = target: Gal(b1-4)GlcNAc(b1-2)Man(a1-3)[Man(a1-6)]Man(b1-4)GlcNAc(b1-4)GlcNAc
# Procedure, shortened: as §1
# [24] = target: Gal(b1-4)GlcNAc(b1-2)Man(a1-6)Man(b1-4)GlcNAc(b1-4)GlcNAc
# Procedure, shortened: as §1
# [25] = target: Gal(b1-4)GlcNAc(b1-2)Man(a1-6)[GlcNAc(b1-2)Man(a1-3)]Man(b1-4)GlcNAc(b1-4)GlcNAc
# Procedure, shortened: as §1
# [26] = target: Gal(b1-4)GlcNAc(b1-2)Man(a1-6)[Man(a1-3)]Man(b1-4)GlcNAc(b1-4)GlcNAc
# Procedure, shortened: as §1
# [27] = target: Gal(b1-4)GlcNAc(b1-2)[Gal(b1-4)GlcNAc(b1-4)]Man(a1-3)[Gal(b1-4)GlcNAc(b1-2)Man(a1-6)]Man(b1-4)GlcNAc(b1-4)GlcNAc
# Procedure, shortened: as §1
# [28] = target: Gal(b1-4)GlcNAc(b1-2)[Gal(b1-4)GlcNAc(b1-4)]Man(a1-3)[Gal(b1-4)GlcNAc(b1-2)[Gal(b1-4)GlcNAc(b1-6)]Man(a1-6)]Man(b1-4)GlcNAc(b1-4)GlcNAc
# Procedure, shortened: as §1
# [29] = target: Gal(b1-4)GlcNAc(b1-2)[Gal(b1-4)GlcNAc(b1-4)]Man(a1-3)[GlcNAc(b1-4)][Gal(b1-4)GlcNAc(b1-2)Man(a1-6)]Man(b1-4)GlcNAc(b1-4)GlcNAc
# Procedure, shortened: as §1
# [30] = target: Gal(b1-4)GlcNAc(b1-2)[Gal(b1-4)GlcNAc(b1-4)]Man(a1-3)[GlcNAc(b1-4)][Gal(b1-4)GlcNAc(b1-2)[Gal(b1-4)GlcNAc(b1-6)]Man(a1-6)]Man(b1-4)GlcNAc(b1-4)GlcNAc
# Procedure, shortened: as §1
# [31] = target: Gal(b1-4)GlcNAc(b1-2)[Gal(b1-4)GlcNAc(b1-6)]Man(a1-6)[Gal(b1-4)GlcNAc(b1-2)Man(a1-3)]Man(b1-4)GlcNAc(b1-4)GlcNAc
# Procedure, shortened: as §1
binder,measurement,setting,value
Epa19 (Candida glabrata) (protein) MGSSHHHHHHSSGLVPRGSHMASSKDPTRFPIGCSPQVLKTQPGLAVKLYSYGHPVPGCSYITYQYPDFPRSGYKKERKLADITGVNGKIDIDLKPNDPCRVLTGHLPSNYNYPDTLTYTNFTMILYGYFQPKVTGYHTFNLEADDLLFMNLGAGNAFDCCKAESTLDNFGNYQSYSLWGSDYAKANITVFLVSGVYYPIRLFYVNRDNNAVIDFSFTTEFDKEKVHDFTSYFFSASDGEQCPGSV,glycan array binding signal (z-score),[1],0.208
same,glycan array binding signal (z-score),[2],-0.211
same,glycan array binding signal (z-score),Gal(b1-3)GlcNAc6S,0.058
same,glycan array binding signal (z-score),[3],-0.613
same,glycan array binding signal (z-score),[4],0.424
same,glycan array binding signal (z-score),[5],-0.356
same,glycan array binding signal (z-score),[6],-0.659
same,glycan array binding signal (z-score),[7],-0.553
same,glycan array binding signal (z-score),[8],1.69
same,glycan array binding signal (z-score),[9],-0.054
same,glycan array binding signal (z-score),[10],-0.344
same,glycan array binding signal (z-score),[11],-0.363
same,glycan array binding signal (z-score),[12],2.39
same,glycan array binding signal (z-score),Gal(b1-4)Gal,0.068
same,glycan array binding signal (z-score),[13],-0.193
same,glycan array binding signal (z-score),[14],-0.369
same,glycan array binding signal (z-score),Gal(b1-4)Glc,-0.382
same,glycan array binding signal (z-score),Gal(b1-4)Glc6S,2.4
same,glycan array binding signal (z-score),Gal(b1-4)GlcNAc,-0.455
same,glycan array binding signal (z-score),[15],-0.393
same,glycan array binding signal (z-score),Gal(b1-4)GlcNAc(b1-2)Man,0.972
same,glycan array binding signal (z-score),[16],-0.144
same,glycan array binding signal (z-score),[17],-0.163
same,glycan array binding signal (z-score),[18],-0.163
same,glycan array binding signal (z-score),[19],-1.35
same,glycan array binding signal (z-score),[20],-0.603
same,glycan array binding signal (z-score),[21],-0.505
same,glycan array binding signal (z-score),[22],-0.894
same,glycan array binding signal (z-score),[23],-0.49
same,glycan array binding signal (z-score),[24],-0.44
same,glycan array binding signal (z-score),[25],0.102
same,glycan array binding signal (z-score),[26],0.854
same,glycan array binding signal (z-score),[27],-0.535
same,glycan array binding signal (z-score),[28],-0.724
same,glycan array binding signal (z-score),[29],-0.328
same,glycan array binding signal (z-score),[30],-1.07
same,glycan array binding signal (z-score),[31],-1.26

# 3 records drawn at random from the list so far:
binder,measurement,setting,value
Epa19 (Candida glabrata) (protein) MGSSHHHHHHSSGLVPRGSHMASSKDPTRFPIGCSPQVLKTQPGLAVKLYSYGHPVPGCSYITYQYPDFPRSGYKKERKLADITGVNGKIDIDLKPNDPCRVLTGHLPSNYNYPDTLTYTNFTMILYGYFQPKVTGYHTFNLEADDLLFMNLGAGNAFDCCKAESTLDNFGNYQSYSLWGSDYAKANITVFLVSGVYYPIRLFYVNRDNNAVIDFSFTTEFDKEKVHDFTSYFFSASDGEQCPGSV,glycan array binding signal (z-score),[30],-1.07
same,glycan array binding signal (z-score),[16],-0.144
same,glycan array binding signal (z-score),[4],0.424
